The text below walks through data of publication PMC9964254, “Caspase Inhibition Modulates Monocyte-Derived Macrophage Polarization in Damaged Tissues” (International Journal of Molecular Sciences, 2023).

The chains behind the UniProt entries cited, without tags or fusion partners.
UniProt P14598: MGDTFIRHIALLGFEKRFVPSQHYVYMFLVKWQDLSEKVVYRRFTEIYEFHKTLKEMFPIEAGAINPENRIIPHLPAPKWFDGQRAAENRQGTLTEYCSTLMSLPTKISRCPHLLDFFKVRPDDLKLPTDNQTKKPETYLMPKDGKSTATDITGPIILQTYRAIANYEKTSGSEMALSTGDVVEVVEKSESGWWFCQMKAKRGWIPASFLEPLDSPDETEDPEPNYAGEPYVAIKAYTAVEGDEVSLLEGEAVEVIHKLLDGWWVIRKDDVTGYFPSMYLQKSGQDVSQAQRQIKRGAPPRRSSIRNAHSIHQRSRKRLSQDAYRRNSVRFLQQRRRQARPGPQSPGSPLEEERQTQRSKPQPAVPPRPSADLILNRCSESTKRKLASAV

These are yes or no findings as the source states them, for the method shown. In cells and extracts the contact can be indirect. Some entries that bind do so weakly or less than the wild type.

Test [1] addresses T1, NOX2 (human (endogenous in peripheral blood monocytes)) (UniProt P04839).
T1 sequence: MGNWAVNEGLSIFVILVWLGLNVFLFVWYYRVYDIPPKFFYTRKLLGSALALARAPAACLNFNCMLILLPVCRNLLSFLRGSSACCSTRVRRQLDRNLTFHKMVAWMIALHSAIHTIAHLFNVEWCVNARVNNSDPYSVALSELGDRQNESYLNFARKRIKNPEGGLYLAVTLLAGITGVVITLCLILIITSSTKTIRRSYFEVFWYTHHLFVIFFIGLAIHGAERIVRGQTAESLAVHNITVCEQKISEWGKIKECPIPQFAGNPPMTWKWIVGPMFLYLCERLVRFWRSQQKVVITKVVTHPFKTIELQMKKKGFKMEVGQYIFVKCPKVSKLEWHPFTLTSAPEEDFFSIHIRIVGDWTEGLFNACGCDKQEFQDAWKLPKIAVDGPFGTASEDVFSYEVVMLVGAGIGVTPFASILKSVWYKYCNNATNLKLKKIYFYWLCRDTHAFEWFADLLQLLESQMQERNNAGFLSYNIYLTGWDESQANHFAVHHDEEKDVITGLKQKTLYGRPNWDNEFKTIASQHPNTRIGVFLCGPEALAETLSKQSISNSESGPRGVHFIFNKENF
Description: proximity ligation; Duolink in situ PLA on fixed, permeabilised human monocytes treated with CSF-1 (100 ng/mL, 4 days) in the presence of 50 µM Q-VD-OPh.

The target in test [2] is T1, NOX2 (human (endogenous in peripheral blood monocytes)). Description: proximity ligation; Duolink in situ PLA on fixed, permeabilised human monocytes treated with CSF-1 (100 ng/mL, 4 days); primary antibodies to the two proteins, confocal imaging.

Turning to “p47^PHOX (endogenous, in monocytes) (from UniProt P14598 1-390)”, the figures for the binding entry in test [1] and in test [2] were “binds weakly” and “binds”, respectively.
